These are yes or no findings as the source states them, for the method shown. Binding seen in cells or lysates may run through a third protein.
Target: tapasin (human (endogenous in KBM-7 and HeLaM)) (UniProt O15533)
Assay: co-IP; tapasin precipitated (Pasta1) from IFN-γ-treated KBM-7 or HeLaM, HeLaM^KO, HeLaM^KOTAPBPR^WT and HeLaM^KOTAPBPR^C94A cells (with or without shUGT1), 1% digitonin TBS with 2.5 mM CaCl2, 4°C; western blot or Cy5 total protein quantification

Amino acid sequences for entries named in this document (tags omitted). Residues count along the entry.
UniProt Q9NYU2, residues 43-1555: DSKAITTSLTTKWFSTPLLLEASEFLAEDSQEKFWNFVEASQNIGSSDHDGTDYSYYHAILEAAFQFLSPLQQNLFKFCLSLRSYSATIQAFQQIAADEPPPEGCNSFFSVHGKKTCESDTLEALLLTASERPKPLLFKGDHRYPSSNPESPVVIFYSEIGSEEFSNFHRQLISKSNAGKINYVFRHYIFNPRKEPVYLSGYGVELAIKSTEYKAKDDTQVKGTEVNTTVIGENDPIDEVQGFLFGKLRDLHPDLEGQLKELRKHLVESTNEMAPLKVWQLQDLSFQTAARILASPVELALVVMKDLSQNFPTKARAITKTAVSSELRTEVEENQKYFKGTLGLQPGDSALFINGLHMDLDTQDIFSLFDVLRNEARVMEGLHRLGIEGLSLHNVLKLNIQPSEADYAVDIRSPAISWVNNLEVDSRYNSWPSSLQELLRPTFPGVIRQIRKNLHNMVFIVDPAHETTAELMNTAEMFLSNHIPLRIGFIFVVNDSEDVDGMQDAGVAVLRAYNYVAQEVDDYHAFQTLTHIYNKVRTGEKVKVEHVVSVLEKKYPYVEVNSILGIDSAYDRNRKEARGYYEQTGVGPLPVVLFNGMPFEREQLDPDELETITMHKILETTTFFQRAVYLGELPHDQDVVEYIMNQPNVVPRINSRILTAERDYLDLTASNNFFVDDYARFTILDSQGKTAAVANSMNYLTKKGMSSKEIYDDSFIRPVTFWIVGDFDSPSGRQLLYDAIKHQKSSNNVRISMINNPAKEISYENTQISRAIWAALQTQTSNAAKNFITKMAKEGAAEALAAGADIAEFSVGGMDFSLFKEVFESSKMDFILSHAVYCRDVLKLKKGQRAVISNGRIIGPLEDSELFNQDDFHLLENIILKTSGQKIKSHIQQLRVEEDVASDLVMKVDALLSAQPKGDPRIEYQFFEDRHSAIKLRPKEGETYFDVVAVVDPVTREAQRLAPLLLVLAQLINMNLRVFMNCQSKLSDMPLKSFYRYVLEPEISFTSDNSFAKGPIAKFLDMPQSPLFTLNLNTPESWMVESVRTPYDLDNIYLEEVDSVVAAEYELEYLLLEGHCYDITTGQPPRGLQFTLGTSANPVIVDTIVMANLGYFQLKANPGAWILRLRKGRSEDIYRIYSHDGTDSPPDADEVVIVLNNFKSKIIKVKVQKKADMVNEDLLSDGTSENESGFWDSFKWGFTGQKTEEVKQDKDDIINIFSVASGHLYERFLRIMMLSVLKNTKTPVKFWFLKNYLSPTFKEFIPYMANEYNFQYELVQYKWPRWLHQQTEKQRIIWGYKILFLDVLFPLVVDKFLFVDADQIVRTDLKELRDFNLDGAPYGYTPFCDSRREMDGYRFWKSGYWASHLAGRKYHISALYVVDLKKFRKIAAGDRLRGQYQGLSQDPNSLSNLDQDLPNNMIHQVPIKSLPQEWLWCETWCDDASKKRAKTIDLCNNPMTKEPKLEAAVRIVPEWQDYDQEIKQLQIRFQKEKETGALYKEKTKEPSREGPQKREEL

Substance: UDP-glucose:glycoprotein glucosyltransferase 1 (from UniProt Q9NYU2 43-1555) (enzyme)
- binding: no binding

Reference: paper PMC5441866
